Reference: article PMC4591342

Target: N. benthamiana myosin XI-K globular tail domain fused with maltose-binding protein (Nicotiana benthamiana)
Assay: pull-down; MBP-XIK GTD or MBP-GUS immobilised on resin; GFP-fused proteins detected before (input) and after pull-down by immunoblot with rabbit polyclonal GFP-specific antibody; done as described in ref. 30

B1: C-terminal domain of mammalian reovirus non-structural protein μNS fused to GFP (domain or fragment, UniProt P12419-1 471-721)
chain: SNDVTDGIKLQLDASRQCHECPVLQQKVVELEKQIIMQKSIQSDPTPVALQPLLSQLRELSSEVTRLQMELSRAQSLNAQLEADVKSAQSCSLDMYLRHHTCINGHAKEDELLDAVRVAPDVRREIMEKRSEVRQGWCERISKEAAAKCQTVIDDLTLMNGKQAQEITELRDSAEKYEKQIAELVSTITQNQITYQQELQALVAKNVELDALNQRQAKSLRITPSLLSATPIDSVDDVADLIDFSVPTDEL
- binding: no binding

Results are given in words; binding and its absence hold for the method and conditions named. Binding seen in cells or lysates may run through a third protein. Where a sequence is shown, tags or fusion partners need not be part of it.
